In PMC10665427 one finds binding data, which are given here for 1 molecule.

Changes are numbered by the printed parent chain. No constants are given. Whether binding was seen depends on the method and setting. In cells and extracts the contact can be indirect. Some binding calls cover weakened binding; strength is not graded here. Tags and fused reporters may be left off the sequences shown.

Experiment [1] concerns the target T1, Lon^WT-Twin-Strep-tag (C. crescentus) (UniProt B8GX12).
T1 sequence: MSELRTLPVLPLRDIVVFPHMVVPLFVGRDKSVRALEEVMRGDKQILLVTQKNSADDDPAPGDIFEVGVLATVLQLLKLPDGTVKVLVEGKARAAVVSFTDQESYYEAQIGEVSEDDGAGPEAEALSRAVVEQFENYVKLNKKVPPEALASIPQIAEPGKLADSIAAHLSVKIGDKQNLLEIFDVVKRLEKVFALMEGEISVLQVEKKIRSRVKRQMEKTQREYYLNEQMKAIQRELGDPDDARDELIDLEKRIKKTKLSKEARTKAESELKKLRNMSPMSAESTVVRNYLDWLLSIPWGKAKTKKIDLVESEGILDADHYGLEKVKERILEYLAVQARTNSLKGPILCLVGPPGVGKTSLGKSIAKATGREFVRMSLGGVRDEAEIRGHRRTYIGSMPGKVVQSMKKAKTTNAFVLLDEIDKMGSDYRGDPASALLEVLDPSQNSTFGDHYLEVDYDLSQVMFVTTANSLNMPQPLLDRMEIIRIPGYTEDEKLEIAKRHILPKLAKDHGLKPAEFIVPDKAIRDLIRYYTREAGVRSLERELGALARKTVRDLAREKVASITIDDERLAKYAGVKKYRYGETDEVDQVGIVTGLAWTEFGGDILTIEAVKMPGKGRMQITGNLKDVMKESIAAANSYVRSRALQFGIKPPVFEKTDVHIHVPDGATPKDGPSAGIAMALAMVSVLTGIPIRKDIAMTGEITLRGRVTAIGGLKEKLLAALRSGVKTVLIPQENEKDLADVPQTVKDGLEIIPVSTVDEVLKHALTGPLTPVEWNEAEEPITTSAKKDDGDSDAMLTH
The experiment in a line: pull-down; Twin-Strep-tagged Lon^WT or Lon^TRAP purified on Strep-TactinXT from C. crescentus Δlon lysates; elution fractions immunoblotted for DnaA; Δlon lysate as control. Background: Immunoblotting shows a protein as a band on a membrane.

Experiment [2] concerns the target T2, Lon^TRAP-Twin-Strep-tag (Lon S674A active-site mutant) (C. crescentus) (UniProt B8GX12).
T2 sequence: T1 sequence with S674A
Described as above.

B1: DnaA (protein, UniProt P0CAU4 1-490)
chain: MTMKGGVASQDFSAAIATACEPAANVWSKVCVALKRELGDAAFGSWIAPAMLREAATGDVVLVTSTGIARDWIRRSAWRRIGELWAAHDATGRRIDLKSRLEFEAAAGAYVEATPKAVAAEPIEIVLPVSTDAPTVVAPSAKSPRTQGLQERFTFETFVPGPANEFAHAVARRIANWADGHFNPVLFHGPYGFGKTHLLNALAWEAMRNAPEKRVVYLTAERFLSTFVRAVMDRQTAAFKEELRAADLLIIDDVHFIAGKQSTQEELFHTLTALVGEGGRVVFSADRPPSAMTEMDAHLRSHLSAGLVCGLEPADRNLRLGILERKIQTLGAAHGFEPSIRPEVMQFLADRFTDSVRELEGALNTLSARAGEGLSRMTLDEVQAILRPHLRSGEKRITIDDIQKATAEHYGMKQADLLSERRNRAVARPRQAAMWLAKQLTTRSLPDIGRRFGGRDHTTVLHAVRRIEALRAEDSALSHDLETLTRKLRG
For the molecule B1, the binding result in experiment [1] is “no binding”; in experiment [2] it was “binds”.
